# The other results are listed elsewhere or left out.
# B1: PX14351B-bth-512-36-512 (Bacteroides thetaiotaomicron) (protein)
# chain: ASETQQWKTLEDTRSALMGVYGLTRAALADNNTHWICGDLRKGDFTVYKRSDLQAVSDNELNKPYDLLKKVSNWRRFYAVINAASVFMEKAPRTVELDRSYSEQNLKYDIAQVRALRAFAYFYMVRIWGDVPLVTYSYDNGTFPSMPRTDAQTVLSYAKAELLTAIEDLPYQYGTQTNLYYGSYGAQWQGKLFNKLSAYSVLAHICAWQGNYAEAETYSAFIIDHASEINAKYTSIADLTSETGLFYSNASVKGSRILGFNFAHNDNEATQSGHLEQLTLAYPLVQKSYPEIYISKDSLFSIFTNFDDLRFGIIDTIKYSSYYVQNLNEETPVFSKIKIIQDGSAKDNDFGVFGSSIVFTRLEDITLLRAEALCALNRSTEAVSYLNMIRTNRGLREVSFKKDFGNNRESLIAEIFEERRRELMGEGWRWYDLVRRQKLMKDNEAFLRLISSGGIYWPVSEDIITANSQIEQNEFWK
# Assays:
# Assay in all cases: glycan array binding signal (z-score within array); higher = stronger binding
# Conditions in all cases: glycan notation: IUPAC condensed, linker removed
# [1] = biological target: Neu5Ac(a2-6)Gal(b1-4)GlcNAc(b1-3)GalNAc
# Outline: (§1)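 Columns mapping to the same glycan were averaged after glycan names were converted to IUPAC-condensed notation. The data come from 3228 arrays in the Consortium for Functional Glycomics database, limited to those with an available protein sequence. Binding is reported as a within-array Z-score averaged across arrays of one protein sequence and across linkers.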
# [2] = biological target: Neu5Ac(a2-6)Gal(b1-4)GlcNAc(b1-3)[Neu5Ac(a2-6)Gal(b1-4)GlcNAc(b1-6)]GalNAc
# Outline: as §1
# [3] = biological target: Neu5Ac(a2-6)Gal(b1-4)GlcNAc(b1-6)[Gal(b1-3)GlcNAc(b1-3)]Gal(b1-4)Glc
# Outline: as §1
# [4] = biological target: Neu5Ac(a2-6)Gal(b1-4)GlcNAc(b1-6)[Gal(b1-3)]GalNAc
# Outline: as §1
# Neu5Ac(a2-6)GalNAc = biological target: Neu5Ac(a2-6)GalNAc
# Outline: as §1
# [5] = biological target: Neu5Ac(a2-6)GalNAc(b1-4)GlcNAc
# Outline: as §1
# [6] = biological target: Neu5Ac(a2-6)GalNAc(b1-4)GlcNAc6S
# Outline: as §1
# [7] = biological target: Neu5Ac(a2-6)GlcNAc(b1-4)GlcNAc
# Outline: as §1
# [8] = biological target: Neu5Ac(a2-6)GlcNAc(b1-4)GlcNAc(b1-4)GlcNAc
# Outline: as §1
# Neu5Ac(a2-8)Neu5Ac = biological target: Neu5Ac(a2-8)Neu5Ac
# Outline: as §1
# [9] = biological target: Neu5Ac(a2-8)Neu5Ac(a2-3)Gal(b1-3)GalNAc(b1-4)[Neu5Ac(a2-3)]Gal(b1-4)Glc
# Outline: as §1
# [10] = biological target: Neu5Ac(a2-8)Neu5Ac(a2-3)Gal(b1-3)GalNAc(b1-4)[Neu5Ac(a2-8)Neu5Ac(a2-3)]Gal(b1-4)Glc
# Outline: as §1
# [11] = biological target: Neu5Ac(a2-8)Neu5Ac(a2-3)Gal(b1-4)Glc
# Outline: as §1
# [12] = biological target: Neu5Ac(a2-8)Neu5Ac(a2-3)Gal(b1-4)GlcNAc
# Outline: as §1
# [13] = biological target: Neu5Ac(a2-8)Neu5Ac(a2-3)[Gal(b1-3)GalNAc(b1-4)]Gal(b1-4)Glc
# Outline: as §1
# [14] = biological target: Neu5Ac(a2-8)Neu5Ac(a2-3)[GalNAc(b1-4)]Gal(b1-4)Glc
# Outline: as §1
# [15] = biological target: Neu5Ac(a2-8)Neu5Ac(a2-8)Neu5Ac
# Outline: as §1
# [16] = biological target: Neu5Ac(a2-8)Neu5Ac(a2-8)Neu5Ac(a2-3)Gal(b1-4)Glc
# Outline: as §1
# [17] = biological target: Neu5Ac(a2-8)Neu5Ac(a2-8)Neu5Ac(a2-3)[Gal(b1-3)GalNAc(b1-4)]Gal(b1-4)Glc
# Outline: as §1
# [18] = biological target: Neu5Ac(b2-6)Gal(b1-4)GlcNAc
# Outline: as §1
# Neu5Ac(b2-6)GalNAc = biological target: Neu5Ac(b2-6)GalNAc
# Outline: as §1
# [19] = biological target: Neu5Ac9Ac(a2-3)Gal(b1-3)GlcNAc
# Outline: as §1
# [20] = biological target: Neu5Ac9Ac(a2-3)Gal(b1-4)GlcNAc
# Outline: as §1
# [21] = biological target: Neu5Ac9Ac(a2-6)Gal(b1-4)GlcNAc
# Outline: as §1
# [22] = biological target: Neu5Gc(a2-3)Gal(b1-3)GlcNAc
# Outline: as §1
# [23] = biological target: Neu5Gc(a2-3)Gal(b1-3)[Fuc(a1-4)]GlcNAc
# Outline: as §1
# Neu5Gc(a2-3)Gal(b1-4)Glc = biological target: Neu5Gc(a2-3)Gal(b1-4)Glc
# Outline: as §1
# [24] = biological target: Neu5Gc(a2-3)Gal(b1-4)GlcNAc
# Outline: as §1
# [25] = biological target: Neu5Gc(a2-3)Gal(b1-4)GlcNAc(b1-3)Gal(b1-4)GlcNAc(b1-2)Man(a1-3)[Neu5Gc(a2-3)Gal(b1-4)GlcNAc(b1-3)Gal(b1-4)GlcNAc(b1-2)Man(a1-6)]Man(b1-4)GlcNAc(b1-4)GlcNAc
# Outline: as §1
# [26] = biological target: Neu5Gc(a2-3)Gal(b1-4)[Fuc(a1-3)]GlcNAc
# Outline: as §1
# [27] = biological target: Neu5Gc(a2-6)Gal(b1-4)GlcNAc
# Outline: as §1
# Neu5Gc(a2-6)GalNAc = biological target: Neu5Gc(a2-6)GalNAc
# Outline: as §1
# [28] = biological target: Neu5Gc(a2-8)Neu5Ac(a2-3)Gal(b1-4)GlcNAc
# Outline: as §1
# [29] = biological target: Neu5Gc(a2-8)Neu5Gc(a2-3)Gal(b1-4)GlcNAc
# Outline: as §1
# [30] = biological target: Neu5Gc(a2-8)Neu5Gc(a2-3)Gal(b1-4)GlcNAc(b1-3)Gal(b1-4)GlcNAc
# Outline: as §1
# [31] = biological target: Neu5Gc(a2-8)Neu5Gc(a2-6)Gal(b1-4)GlcNAc
# Outline: as §1
# [32] = biological target: Neu5Gc(b2-6)Gal(b1-4)GlcNAc
# Outline: as §1
binder,measurement,setting,value
B1,glycan array binding signal (z-score),[1],-0.255
same,glycan array binding signal (z-score),[2],-0.323
same,glycan array binding signal (z-score),[3],-0.387
same,glycan array binding signal (z-score),[4],-0.154
same,glycan array binding signal (z-score),Neu5Ac(a2-6)GalNAc,-0.287
same,glycan array binding signal (z-score),[5],-0.122
same,glycan array binding signal (z-score),[6],-0.15
same,glycan array binding signal (z-score),[7],-0.225
same,glycan array binding signal (z-score),[8],-0.026
same,glycan array binding signal (z-score),Neu5Ac(a2-8)Neu5Ac,-0.035
same,glycan array binding signal (z-score),[9],-0.191
same,glycan array binding signal (z-score),[10],-0.288
same,glycan array binding signal (z-score),[11],-0.329
same,glycan array binding signal (z-score),[12],-0.137
same,glycan array binding signal (z-score),[13],-0.099
same,glycan array binding signal (z-score),[14],0.094
same,glycan array binding signal (z-score),[15],-0.09
same,glycan array binding signal (z-score),[16],-0.22
same,glycan array binding signal (z-score),[17],-0.379
same,glycan array binding signal (z-score),[18],-0.258
same,glycan array binding signal (z-score),Neu5Ac(b2-6)GalNAc,-0.269
same,glycan array binding signal (z-score),[19],-0.073
same,glycan array binding signal (z-score),[20],-0.091
same,glycan array binding signal (z-score),[21],-0.276
same,glycan array binding signal (z-score),[22],-0.274
same,glycan array binding signal (z-score),[23],-0.197
same,glycan array binding signal (z-score),Neu5Gc(a2-3)Gal(b1-4)Glc,-0.321
same,glycan array binding signal (z-score),[24],-0.337
same,glycan array binding signal (z-score),[25],0.224
same,glycan array binding signal (z-score),[26],-0.301
same,glycan array binding signal (z-score),[27],-0.391
same,glycan array binding signal (z-score),Neu5Gc(a2-6)GalNAc,-0.086
same,glycan array binding signal (z-score),[28],-0.336
same,glycan array binding signal (z-score),[29],-0.302
same,glycan array binding signal (z-score),[30],-0.359
same,glycan array binding signal (z-score),[31],-0.296
same,glycan array binding signal (z-score),[32],0.662

# A portion from the list above, as a working copy:
binder,measurement,setting,value
B1,glycan array binding signal (z-score),[5],-0.122
same,glycan array binding signal (z-score),[6],-0.15

# Reference: the supplement of paper PMC8728848
